{"sequences": {"note": "Protein sequences, listed by entry. Tags and fused reporters are not part of them. Lines headed by an entry give the natural chain unless they say otherwise; changes in a name come on top.", "UniProt P18054": "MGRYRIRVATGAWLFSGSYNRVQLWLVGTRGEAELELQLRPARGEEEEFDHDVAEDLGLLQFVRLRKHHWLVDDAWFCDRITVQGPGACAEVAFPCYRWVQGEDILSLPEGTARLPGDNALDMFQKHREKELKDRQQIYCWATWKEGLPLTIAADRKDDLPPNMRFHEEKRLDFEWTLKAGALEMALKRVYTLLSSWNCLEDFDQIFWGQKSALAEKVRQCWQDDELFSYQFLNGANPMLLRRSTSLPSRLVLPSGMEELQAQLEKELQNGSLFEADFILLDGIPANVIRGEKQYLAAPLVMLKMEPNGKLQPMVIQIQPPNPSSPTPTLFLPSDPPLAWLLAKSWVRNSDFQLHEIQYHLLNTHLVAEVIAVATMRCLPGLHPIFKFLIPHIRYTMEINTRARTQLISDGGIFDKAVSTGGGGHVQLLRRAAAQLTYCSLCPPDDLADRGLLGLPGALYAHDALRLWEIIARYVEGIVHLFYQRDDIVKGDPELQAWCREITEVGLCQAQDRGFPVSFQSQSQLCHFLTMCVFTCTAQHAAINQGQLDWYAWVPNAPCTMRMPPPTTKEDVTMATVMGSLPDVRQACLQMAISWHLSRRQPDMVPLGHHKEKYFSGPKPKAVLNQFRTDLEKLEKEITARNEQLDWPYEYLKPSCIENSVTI"}, "source": "PubChem BioAssay AID1671190", "about": "(National Center for Advancing Translational Sciences (NCATS), 2021)", "note": "Values joined by “and” are separate entries in the source; they are usually repeats but may differ in a detail not shown here. Equal values may be shown once. Hit rate of the full screen: of about 580,000 compounds, about 6,100 (1.1%) were called active. The shares of active, inactive and inconclusive entries below differ from those in the screen. Calls come from the whole dose curve; as a rule, active = well fitted inhibition curve with a large enough effect; inconclusive = small, poorly fitted or top-dose-only effect, or another doubt; inactive = no such curve, though single readings can be large or run the other way. A potency beside an inconclusive call is a rough fit, not a confirmed value. % is set by controls: 0 for no effect and ±100 for the full control effect; potency is the fitted concentration of half-maximal effect."}
{"target": "Polyunsaturated fatty acid lipoxygenase ALOX12 (Homo sapiens) (UniProt P18054)", "assay": "Primary qHTS assay for inhibitors of human arachidonate 12S-lipoxygenase (ALOX12): Round 2", "conditions": "purified 12hLO, xylenol orange hydroperoxide absorbance; activity change, negative = inhibition: at 108 µM (top of the series) unless noted", "outline": "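Hydroperoxide product was detected by ferrous iron/xylenol orange as the 573 to 405 nm absorbance ratio. Arachidonic acid at 40 uM (final) was turned over for 30 min at room temperature by 150 nM human 12hLO, pH 7.0 Hepes buffer, after 15 min compound preincubation.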"}
{"smiles": "CCn1c(=O)c2c(nc(-n3nc(C)cc3C)n2Cc2c(Cl)cccc2Cl)n(C)c1=O", "Potency": "inactive"}
{"smiles": "COC(=O)C1CCN(CC(=O)NC(=O)Nc2ccccc2F)CC1", "Potency": "inconclusive: 39.8 µM [inhibitor, partial curve, poor fit]"}
{"smiles": "O=C1C(Cl)=C(NS(=O)(=O)c2ccc([N+](=O)[O-])cc2)C(=O)c2ccccc21", "Potency": "inconclusive: 112 µM [inhibitor, single point]"}
{"smiles": "CC(C(=O)N1CCNC1=O)N1CCC(c2nc3ccccc3o2)CC1", "note": "(centres undefined)", "Potency": "inactive"}
{"smiles": "CCN1CCN(C(c2ccc(C(F)(F)F)cc2)c2ccc3cccnc3c2O)CC1", "note": "(centres undefined)", "Potency": "active: 8.91 µM"}
{"smiles": "O=C(CSc1nnc(C23CC4CC(CC(C4)C2)C3)o1)Nc1ccc(N2CCOCC2)c(Cl)c1", "Potency": "inactive"}
{"smiles": "CCn1nccc1C(=O)Nc1cc(Cl)cc(Cl)c1", "Potency": "inconclusive: 89.1 µM [inhibitor, single point]"}
{"smiles": "CCOC(=O)CCSc1n[nH]c(=S)s1", "Potency": "inconclusive: 112 µM [inhibitor, partial curve, poor fit]"}
{"smiles": "CO/N=C(/C(=O)N[C@@H]1C(=O)N2C(C(=O)O)=C(Cn3nnc(C)n3)CS[C@H]12)c1csc(N)n1", "activity change, negative = inhibition": "inactive: -8.52% [at 22.9 µM]"}
{"smiles": "Clc1ccc(-c2nn3c(-c4ccc5ccccc5n4)nnc3s2)cc1", "Potency": "inconclusive: 22.4 µM [inhibitor, partial curve]"}
{"smiles": "Cn1c(N)c(C(=O)CCl)c(=O)n(Cc2ccccc2)c1=O", "Potency": "inactive"}
{"smiles": "Cc1cccc(C(=O)OCC(=O)Nc2c(C)n(C)n(-c3ccccc3)c2=O)c1", "Potency": "inactive"}
{"smiles": "Cc1cc(N(C)C)n2nc(Cc3ccc(Cl)cc3)nc2n1", "Potency": "inconclusive: 79.4 µM [inhibitor, single point]"}
{"smiles": "O=C(O)c1ccccc1NS(=O)(=O)c1ccc2c3c(cccc13)C(=O)N2", "Potency": "inconclusive: 20 µM [inhibitor, partial curve, poor fit]"}
{"smiles": "Cc1ccc(C(=O)NCC(=O)OCC(=O)N2CCCc3ccccc32)cc1", "Potency": "inconclusive: 141 µM [inhibitor, partial curve, poor fit]"}
{"smiles": "O=C(CCS(=O)(=O)c1ccccc1)N(Cc1cccnc1)c1nc2c(Cl)cccc2s1", "Potency": "inactive"}
{"smiles": "C=CCn1c(SCC)nc2c1c(=O)n(C)c(=O)n2C", "Potency": "inconclusive: 31.6 µM [inhibitor, partial curve, poor fit]"}
{"smiles": "COc1cccc(C=C(C#N)C(=O)c2ccccc2)c1", "Potency": "inconclusive: 44.7 µM [inhibitor, partial curve, poor fit]"}
{"smiles": "CCCCCCOC1(c2ccccc2)OC(=O)c2ccccc21", "note": "(centres undefined)", "Potency": "inactive"}
{"smiles": "O=C(NC(=S)NCc1ccccc1)c1cccs1", "Potency": "inconclusive: 44.7 µM [inhibitor, partial curve, poor fit]"}
{"smiles": "Cn1c(-c2ccc(Cl)cc2)cnc1NCc1cc2c(cc1[N+](=O)[O-])OCO2", "Potency": "inconclusive: 50.1 µM [inhibitor, partial curve, poor fit]"}
{"smiles": "CC(C)c1nc2c(c(-c3ccc(O)cc3)n1)CN(Cc1cccc(F)c1)CC2", "Potency": "inconclusive: 89.1 µM [inhibitor, single point]"}
{"smiles": "Cc1ccc(C(=O)Nc2ncc3c(Cl)cccc3n2)cc1", "Potency": "inactive"}
{"smiles": "CCCc1ccc(-c2csc(NC(=O)Cn3cnc4c3c(=O)n(C)c(=O)n4C)n2)cc1", "Potency": "inactive"}
{"smiles": "Clc1cccc(Cc2c(C3CCCCC3)nc3c4ccccc4ccn23)c1", "Potency": "inconclusive: 100 µM [inhibitor, single point]"}
{"smiles": "Cc1cc(-c2nnn(CCCOC(C)(C)C)c2C)ccc1-c1cn(CCCOC(C)(C)C)nn1", "Potency": "inactive"}
{"smiles": "CC(=O)NCC(=O)N1CCCC(C(=O)c2ccc(Oc3ccccc3)cc2)C1", "note": "(centres undefined)", "Potency": "inactive"}
{"smiles": "Cc1nc(SCC(=O)NC(C)(C#N)C(C)C)n(C2CCCC2)c1C", "note": "(centres undefined)", "Potency": "inconclusive: 44.7 µM [inhibitor, single point]"}
{"smiles": "CCN(C(=O)C(C)OC(=O)CCCNC(=O)c1ccc(Cl)cc1)c1ccccc1", "note": "(centres undefined)", "Potency": "inconclusive: 100 µM [inhibitor, single point]"}
{"smiles": "COc1ccc(-c2cc(C(F)(F)F)nc(SCc3cccc(C(=O)O)c3)n2)cc1", "Potency": "inconclusive: 2.82 µM [inhibitor, full curve, poor fit]"}
{"smiles": "O=C(Nc1nnc(SCc2ccccn2)s1)C1CC(=O)N(c2ccc(F)cc2)C1", "note": "(centres undefined)", "Potency": "inconclusive: 50.1 µM [inhibitor, partial curve, poor fit]"}
{"smiles": "Oc1ccc2ccccc2c1CN1CCCCC1", "Potency": "inconclusive: 50.1 µM [inhibitor, partial curve, poor fit]"}
{"smiles": "CCOc1ccc(NC(=S)NC(C)CCc2ccccc2)cc1", "note": "(centres undefined)", "Potency": "inconclusive: 44.7 µM [inhibitor, partial curve, poor fit]"}
{"smiles": "CCN(CC)C(=O)Cn1cc(/C=C(\\C#N)C(=O)NC2CC2)c2ccccc21", "Potency": "inconclusive: 70.8 µM [inhibitor, partial curve, poor fit]"}
{"smiles": "CC(C)CC(=O)NN", "Potency": "inactive"}
{"smiles": "COc1ccc(-c2nc3cnc(N4CCOCC4)nc3n(C3CC3)c2=O)cc1", "Potency": "inactive"}
{"smiles": "CC1(C)Cc2c(sc(N)c2C#N)C(C)(C)N1", "Potency": "inactive"}
{"smiles": "C=CCNC(=O)CN1CCN(Cc2ccc(F)c3cccnc23)CC1", "Potency": "inactive"}
{"smiles": "CC(=O)c1cccc(NC(=O)CSc2nnc3ccc(-c4ccc(Cl)cc4)nn23)c1", "Potency": "inconclusive: 141 µM [inhibitor, single point]"}
{"smiles": "Cc1ccc(C)c(CSC2=NC(C)(C)Nc3ccccc32)c1", "Potency": "inconclusive: 100 µM [inhibitor, partial curve, poor fit]"}
{"smiles": "CCCCCC(=O)N/N=C/c1cccc(Cl)c1", "Potency": "inconclusive: 158 µM [inhibitor, single point]"}
{"smiles": "Cc1ccc2c(CN3CCOCC3)cc(=O)oc2c1", "Potency": "inconclusive: 44.7 µM [inhibitor, single point]"}
{"smiles": "COC(=O)Cc1cc(=O)[nH]c(/N=C(\\N)Nc2ccc(C)cc2C)n1", "Potency": "inconclusive: 17.8 µM [inhibitor, single point]"}
{"smiles": "COc1ccccc1NC(=O)C1=C(C)Nc2nc(SCc3ccccc3F)nn2C1c1cccnc1", "note": "(centres undefined)", "Potency": "inconclusive: 100 µM [inhibitor, partial curve, poor fit]"}
{"smiles": "O=C(NCCc1ccc(Cl)cc1)c1nc(-c2ccsc2)c2ccccn12", "Potency": "inconclusive: 35.5 µM [inhibitor, full curve]"}
{"smiles": "CC(C)(C)c1cc(CN2CCOCC2)c(C(=O)O)o1", "Potency": "inconclusive: 2.82 µM [inhibitor, full curve] and inconclusive: 11.2 µM [inhibitor, partial curve, poor fit]"}
{"smiles": "O=C(O)c1ccccc1O", "Potency": "inconclusive: 22.4 µM [inhibitor, full curve, poor fit]"}
{"smiles": "CC(Cn1cccn1)NC(=O)c1ccc2c(c1)OCO2", "note": "(centres undefined)", "Potency": "inactive"}
{"smiles": "NCc1ccc(-c2ccccn2)cc1", "Potency": "inconclusive: 44.7 µM [inhibitor, partial curve, poor fit]"}
{"smiles": "Cc1ccc(C)c(NS(=O)(=O)c2cc(C(=O)N3CCc4ccccc4C3)ccc2Cl)c1", "Potency": "inactive"}
{"smiles": "CC1CCN(S(=O)(=O)c2ccc3c(c2)CCN3C(=O)Nc2cccc(Br)c2)CC1", "Potency": "inactive"}
{"smiles": "CC1CCCCC1NC(=O)c1cc2c(Cl)nc3ccccc3c2s1", "note": "(centres undefined)", "Potency": "inactive"}
{"smiles": "COc1cc(/C=N/Nc2nc(-c3ccc(S(=O)(=O)N(C)C)cc3)cs2)ccc1O", "Potency": "inactive"}
{"smiles": "Cc1cccc(NC(=O)CN2C(=O)N/C(=C\\c3ccc(-c4cccc(C(=O)O)c4)o3)C2=O)c1", "Potency": "inconclusive: 126 µM [inhibitor, single point]"}
{"smiles": "OCc1ccc(CN2C[C@H](O)C[C@H]2c2nc(-c3ccc(F)cc3)no2)o1", "Potency": "active: 25.1 µM"}
{"smiles": "O=C1NC(c2ccccc2)=C(c2nc3ccccc3s2)C(c2ccc(F)cc2)N1", "note": "(centres undefined)", "Potency": "inconclusive: 112 µM [inhibitor, single point]"}
{"smiles": "O=C(Nc1ccn(CCCNCc2ccc3[nH]ccc3c2)c(=O)n1)OCc1ccccc1", "Potency": "inconclusive: 50.1 µM [inhibitor, partial curve, poor fit]"}
{"smiles": "COc1cc(C(=O)OCC(=O)NC(N)=O)cc(CN2C(=O)c3ccccc3C2=O)c1OC", "Potency": "inconclusive: 8.91 µM [inhibitor, partial curve, poor fit]"}
{"smiles": "CCNS(=O)(=O)c1ccc(NC(=O)c2ccccc2OCC)cc1", "Potency": "inconclusive: 0.501 µM [inhibitor, full curve, poor fit]"}
{"smiles": "Cn1c(C=O)c(C#CC(C)(C)O)c2ccccc21", "Potency": "inconclusive: 35.5 µM [inhibitor, partial curve, poor fit]"}
{"smiles": "O=C(O)c1cc(N(Cc2ccccc2O)Cc2cc(O)ccc2O)ccc1O", "Potency": "inconclusive: 39.8 µM [inhibitor, partial curve, poor fit]"}
{"smiles": "OC1CCCN(C(=S)Nc2ccc(SC(F)F)cc2)C1", "note": "(centres undefined)", "Potency": "inactive"}
{"smiles": "O=c1cc(-c2ccc(O)c(O)c2)oc2ccccc12", "Potency": "inconclusive: 6.31 µM [inhibitor, full curve, poor fit]"}
{"smiles": "Cc1ccccc1CN1CCN(CC2CC3C=CC2C3)CC1", "note": "(centres undefined)", "Potency": "inconclusive: 1.26 µM [inhibitor, full curve, poor fit]"}
{"smiles": "COc1ccc(C2/C(=C(/O)c3ccc4c(c3)CC(C)O4)C(=O)C(=O)N2Cc2cccnc2)cc1", "note": "(centres undefined)", "Potency": "inactive"}
{"smiles": "CCn1c(-n2nc(C)c(C)c2C)nc2c1c(=O)n(Cc1c(F)cccc1Cl)c(=O)n2C", "Potency": "inactive"}
{"smiles": "Nc1ncc(-c2cc3ccccc3oc2=O)s1", "Potency": "inconclusive: 14.1 µM [inhibitor, partial curve, poor fit]"}
{"smiles": "C=CCNC(=O)CN1CCN(C(=O)Cn2c(C)cc3ccccc32)CC1", "Potency": "inconclusive: 35.5 µM [inhibitor, partial curve, poor fit]"}
{"smiles": "Cc1cc(N2C(=O)C(O)=C(C(=O)c3cc4ccccc4o3)C2c2cccc(Br)c2)no1", "note": "(centres undefined)", "Potency": "active: 44.7 µM"}
